Each structure is given as a SMILES string. Marks after values point to notes of the source that are not given here.

The nature of this data set: Blood cell analysis of mice infected with E. multilocularis. The following applies: infected BALB/c mice, 6 weeks. Type of data set: in vivo.

Take `N#C/N=C1\SCCN1Cc1ccc(Cl)nc1` [thiacloprid]: under “Thia 15 (15 mg/kg/day orally)”, the Eos turned out to be 4.37±1.32 %, the HGB is 196.50 ± 11.93 g/L, the Lym stood at 41.27±10.25 % and the Neu turned out to be 47.43±12.25%. In addition, under “Thia 15 (15 mg/kg/day orally)”, the RBC is given as 9.22±0.60 1012/L and the WBC is given as 25.10±3.86* 109/L. Under “Thia 30 (30 mg/kg/day orally)”, the Eos is 2.45±0.71%, the HGB turned out to be 190.8 ± 35.86 g/L, the Lym was 50.38±15.14 % and the Neu came to 49.52±7.23%. Moreover, for the setting “Thia 30 (30 mg/kg/day orally)”, the RBC is on record as 8.71±1.50 1012/L and the WBC is 27.60±3.10* 109/L.
For the setting “ABZ 100 mg/kg/day orally”, `CCCSc1ccc2nc(NC(=O)OC)[nH]c2c1` [ABZ, albendazole] displayed an Eos of 1.71±0.59%, an HGB of 203.50 ± 19.66 g/L, a Lym of 22.49±6.83 % and a Neu of 73.19±8.66 %. In addition, under “ABZ 100 mg/kg/day orally”, the RBC is recorded as 9.60±1.12 1012/L and the WBC is reported as 27.84±4.27* 109/L.

(Values after PMC8419995, “In vitro and in vivo efficacy of thiacloprid against Echinococcus multilocularis” (Parasites & Vectors, 2021).)
